# Reference: the supplement of paper PMC4604168 (melanoma cell lines)
# This is one part of the list. Repeats are few or missing, and single values can be far off.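 Imaging used 1,536-well plates; nuclei positive for cleaved PARP by antibody were divided by total DNA-stained nuclei to yield the apoptosis fraction. Doses for screening kept most cells viable, and cell lines differ markedly in resting and induced cleaved-PARP levels.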
# Test system: IST-MEL1
# Test: cleaved PARP positive nuclei fraction relative to DMSO control; melanoma cells; higher = more apoptosis
# Conditions: library dose: low library concentration; 72 h
row,Structure (SMILES),cleaved PARP positive nuclei fraction
1,"CC[C@]1(O)C[C@H]2CN(CCc3c([nH]c4ccccc34)[C@@](C(=O)OC)(c3cc4c(cc3OC)N(C=O)[C@H]3[C@@](O)(C(=O)OC)[C@H](OC(C)=O)[C@]5(CC)C=CCN6CC[C@]43[C@@H]65)C2)C1 [vincristine] + CO[C@H]1C[C@@H]2CC[C@@H](C)[C@@](O)(O2)C(=O)C(=O)N2CCCC[C@H]2C(=O)O[C@H]([C@H](C)C[C@@H]2CC[C@@H](OCCO)[C@H](OC)C2)CC(=O)[C@H](C)/C=C(\C)[C@@H](O)[C@@H](OC)C(=O)[C@H](C)C[C@H](C)/C=C/C=C/C=C/1C [everolimus] (first compound 0.0001 µM, partner dose 0.02 µM)",181%
2,"COc1cc([C@@H]2c3cc4c(cc3[C@@H](O[C@@H]3O[C@@H]5CO[C@@H](C)O[C@H]5[C@H](O)[C@H]3O)[C@H]3COC(=O)[C@H]23)OCO4)cc(OC)c1O [etoposide] + CC1(C)CCC(c2ccc(Cl)cc2)=C(CN2CCN(c3ccc(C(=O)NS(=O)(=O)c4ccc(N[C@H](CCN5CCOCC5)CSc5ccccc5)c(S(=O)(=O)C(F)(F)F)c4)cc3)CC2)C1 [ABT263] (first compound 0.02 µM, partner dose 0.4 µM)",111%
3,"CC[C@]1(O)C[C@H]2CN(CCc3c([nH]c4ccccc34)[C@@](C(=O)OC)(c3cc4c(cc3OC)N(C=O)[C@H]3[C@@](O)(C(=O)OC)[C@H](OC(C)=O)[C@]5(CC)C=CCN6CC[C@]43[C@@H]65)C2)C1 [vincristine] + NC(=O)c1ccc(N(C(N)=O)c2c(F)cccc2F)nc1-c1ccc(F)cc1F [VX702] (first compound 0.0001 µM, partner dose 0.4 µM)",72.2%
4,"Cc1ccc(Nc2nccc(N(C)c3ccc4c(C)n(C)nc4c3)n2)cc1S(N)(=O)=O [Pazopanib] + C=CCNC1=C2C[C@@H](C)C[C@H](OC)[C@H](O)[C@@H](C)/C=C(\C)[C@H](OC(N)=O)[C@@H](OC)/C=C\C=C(/C)C(=O)NC(=CC1=O)C2=O [Tanespimycin] (first compound 0.4 µM, partner dose 0.002 µM)",84.1%
5,"O=C(Nc1cc(C(F)(F)F)cc(C(F)(F)F)c1)c1cc(Cl)ccc1O + Cn1c(=O)n(-c2ccc(C(C)(C)C#N)cc2)c2c3cc(-c4cnc5ccccc5c4)ccc3ncc21 [NVP-BEZ235] (first compound 0.016 µM, partner dose 0.004 µM)",31.1%
6,"Cc1cn(-c2cc(NC(=O)c3ccc(C)c(Nc4nccc(-c5cccnc5)n4)c3)cc(C(F)(F)F)c2)cn1 [nilotinib] + Cc1nc(Nc2ncc(C(=O)Nc3c(C)cccc3Cl)s2)cc(N2CCN(CCO)CC2)n1 [dasatanib] (first compound 0.2 µM, partner dose 0.004 µM)",163%
7,"Cc1cc(Nc2cc(N3CCN(C)CC3)nc(Sc3ccc(NC(=O)C4CC4)cc3)n2)n[nH]1 [Tozasertib] + O=C(O)c1ccc2c(c1)nc(Nc1cccc(Cl)c1)c1ccncc12 [CX4945] (first compound 0.006 µM, partner dose 0.4 µM)",268%
8,"O=C(Nc1cc(C(F)(F)F)cc(C(F)(F)F)c1)c1cc(Cl)ccc1O + CO[C@H]1C[C@@H]2CC[C@@H](C)[C@@](O)(O2)C(=O)C(=O)N2CCCC[C@H]2C(=O)O[C@H]([C@H](C)C[C@@H]2CC[C@@H](OCCO)[C@H](OC)C2)CC(=O)[C@H](C)/C=C(\C)[C@@H](O)[C@@H](OC)C(=O)[C@H](C)C[C@H](C)/C=C/C=C/C=C/1C [everolimus] (first compound 0.016 µM, partner dose 0.02 µM)",84.2%
9,"Cc1cc(Nc2cc(N3CCN(C)CC3)nc(Sc3ccc(NC(=O)C4CC4)cc3)n2)n[nH]1 [Tozasertib] + Nc1cccc2c1CN(C1CCC(=O)NC1=O)C2=O [lenalidomide] (first compound 0.006 µM, partner dose 1 µM)",123%
10,"O=C(Nc1cc(C(F)(F)F)cc(C(F)(F)F)c1)c1cc(Cl)ccc1O + Cn1nnc2c(C(N)=O)ncn2c1=O [temozolomide] (first compound 0.016 µM, partner dose 2 µM)",145%
11,"COc1cc([C@@H]2c3cc4c(cc3[C@@H](O[C@@H]3O[C@@H]5CO[C@@H](C)O[C@H]5[C@H](O)[C@H]3O)[C@H]3COC(=O)[C@H]23)OCO4)cc(OC)c1O [etoposide] + Cn1sc(=O)n(Cc2ccccc2)c1=O [TDZD-8] (first compound 0.02 µM, partner dose 0.4 µM)",33.9%
12,"Cc1cn(-c2cc(NC(=O)c3ccc(C)c(Nc4nccc(-c5cccnc5)n4)c3)cc(C(F)(F)F)c2)cn1 [nilotinib] + Nc1nc(F)nc2c1ncn2[C@@H]1O[C@H](CO)[C@@H](O)[C@@H]1O [fludarabine] (first compound 0.2 µM, partner dose 0.2 µM)",152%
13,"O=c1[nH]nc(Sc2ncc([N+](=O)[O-])s2)n1-c1ccc2c(c1)OCCO2 + CO[C@H]1C[C@@H]2CC[C@@H](C)[C@@](O)(O2)C(=O)C(=O)N2CCCC[C@H]2C(=O)O[C@H]([C@H](C)C[C@@H]2CC[C@@H](OCCO)[C@H](OC)C2)CC(=O)[C@H](C)/C=C(\C)[C@@H](O)[C@@H](OC)C(=O)[C@H](C)C[C@H](C)/C=C/C=C/C=C/1C [everolimus] (first compound 0.2 µM, partner dose 0.02 µM)",90.1%
14,"O=c1[nH]nc(Sc2ncc([N+](=O)[O-])s2)n1-c1ccc2c(c1)OCCO2 + Cn1nnc2c(C(N)=O)ncn2c1=O [temozolomide] (first compound 0.2 µM, partner dose 2 µM)",47.3%
15,"Cc1cc(Nc2cc(N3CCN(C)CC3)nc(Sc3ccc(NC(=O)C4CC4)cc3)n2)n[nH]1 [Tozasertib] + C[C@@H](Oc1cc(-c2cnn(C3CCNCC3)c2)cnc1N)c1c(Cl)ccc(F)c1Cl [Crizotinib] (first compound 0.006 µM, partner dose 0.2 µM)",44.7%
16,"O=c1[nH]nc(Sc2ncc([N+](=O)[O-])s2)n1-c1ccc2c(c1)OCCO2 + NC(=O)c1ccc(N(C(N)=O)c2c(F)cccc2F)nc1-c1ccc(F)cc1F [VX702] (first compound 0.2 µM, partner dose 0.4 µM)",281%
17,"Cc1ccc(Nc2nccc(N(C)c3ccc4c(C)n(C)nc4c3)n2)cc1S(N)(=O)=O [Pazopanib] + CO[C@H]1C[C@@H]2CC[C@@H](C)[C@@](O)(O2)C(=O)C(=O)N2CCCC[C@H]2C(=O)O[C@H]([C@H](C)C[C@@H]2CC[C@@H](OCCO)[C@H](OC)C2)CC(=O)[C@H](C)/C=C(\C)[C@@H](O)[C@@H](OC)C(=O)[C@H](C)C[C@H](C)/C=C/C=C/C=C/1C [everolimus] (first compound 0.4 µM, partner dose 0.02 µM)",75.8%
18,"Cc1ccc(Nc2nccc(N(C)c3ccc4c(C)n(C)nc4c3)n2)cc1S(N)(=O)=O [Pazopanib] + CCCS(=O)(=O)Nc1ccc(F)c(C(=O)c2c[nH]c3ncc(Cl)cc23)c1F [PLX4720] (first compound 0.4 µM, partner dose 0.08 µM)",59.6%
19,"N#CC[C@H](C1CCCC1)n1cc(-c2ncnc3[nH]ccc23)cn1 [ruxolitinib] + OCc1c[nH]c2ccccc12 [Indole-3-carbinol] (first compound 1 µM, partner dose 0.8 µM)",29.3%
20,"Cc1ccc(Nc2nccc(N(C)c3ccc4c(C)n(C)nc4c3)n2)cc1S(N)(=O)=O [Pazopanib] + OCc1c[nH]c2ccccc12 [Indole-3-carbinol] (first compound 0.4 µM, partner dose 0.8 µM)",33.8%
21,"COc1cc([C@@H]2c3cc4c(cc3[C@@H](O[C@@H]3O[C@@H]5CO[C@@H](C)O[C@H]5[C@H](O)[C@H]3O)[C@H]3COC(=O)[C@H]23)OCO4)cc(OC)c1O [etoposide] + C[C@]1(O)C[C@@H](c2nc(-c3ccc4ccc(-c5ccccc5)nc4c3)c3c(N)nccn32)C1 [OSI906] (first compound 0.02 µM, partner dose 0.4 µM)",61.6%
22,"N#CC[C@H](C1CCCC1)n1cc(-c2ncnc3[nH]ccc23)cn1 [ruxolitinib] + CO[C@H]1C[C@@H]2CC[C@@H](C)[C@@](O)(O2)C(=O)C(=O)N2CCCC[C@H]2C(=O)O[C@H]([C@H](C)C[C@@H]2CC[C@@H](OCCO)[C@H](OC)C2)CC(=O)[C@H](C)/C=C(\C)[C@@H](O)[C@@H](OC)C(=O)[C@H](C)C[C@H](C)/C=C/C=C/C=C/1C [everolimus] (first compound 1 µM, partner dose 0.02 µM)",109%
23,"Cc1ccc(Nc2nccc(N(C)c3ccc4c(C)n(C)nc4c3)n2)cc1S(N)(=O)=O [Pazopanib] + Cn1nnc2c(C(N)=O)ncn2c1=O [temozolomide] (first compound 0.4 µM, partner dose 2 µM)",93.6%
24,"O=c1[nH]nc(Sc2ncc([N+](=O)[O-])s2)n1-c1ccc2c(c1)OCCO2 + CCCS(=O)(=O)Nc1ccc(F)c(C(=O)c2c[nH]c3ncc(Cl)cc23)c1F [PLX4720] (first compound 0.2 µM, partner dose 0.08 µM)",128%
25,"Cc1ccc(Nc2nccc(N(C)c3ccc4c(C)n(C)nc4c3)n2)cc1S(N)(=O)=O [Pazopanib] + CC(=O)c1c(C)c2cnc(Nc3ccc(N4CCNCC4)cn3)nc2n(C2CCCC2)c1=O [palbociclib] (first compound 0.4 µM, partner dose 0.04 µM)",44.6%

# Reformatted: results already given.
row	Structure (SMILES)	cleaved PARP positive nuclei fraction
19	N#CC[C@H](C1CCCC1)n1cc(-c2ncnc3[nH]ccc23)cn1 [ruxolitinib] + OCc1c[nH]c2ccccc12 [Indole-3-carbinol] (first compound 1 µM, partner dose 0.8 µM)	29.3%
22	N#CC[C@H](C1CCCC1)n1cc(-c2ncnc3[nH]ccc23)cn1 [ruxolitinib] + CO[C@H]1C[C@@H]2CC[C@@H](C)[C@@](O)(O2)C(=O)C(=O)N2CCCC[C@H]2C(=O)O[C@H]([C@H](C)C[C@@H]2CC[C@@H](OCCO)[C@H](OC)C2)CC(=O)[C@H](C)/C=C(\C)[C@@H](O)[C@@H](OC)C(=O)[C@H](C)C[C@H](C)/C=C/C=C/C=C/1C [everolimus] (first compound 1 µM, partner dose 0.02 µM)	109%
